The supplement of paper PMC7661543
Differences between knockout arms are mostly noise.

System: BT-20
Assay: relative cell number vs DMSO control (72 h) (% of DMSO); higher = less growth inhibition (more cells)
Experimental: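 QMAP-Seq: a pool of 5 breast cancer cell lines (ZR-75-1, SKBR3, HCC-38, MDA-MB-231, BT-20), each carrying 12 doxycycline-inducible Cas9 sgRNA perturbations (11 knockouts plus non-targeting sgNT), was treated with compounds for 72 h at four 10-fold doses (10 nM-10 uM or 1 nM-1 uM range). Barcodes were amplified and sequenced, and cell number was interpolated from 293T spike-in standard curves. The result is expressed as % of the median of DMSO wells. Two biological replicates.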

Cc1ccc(F)c(NC(=O)Nc2ccc(-c3cccc4[nH]nc(N)c34)cc2)c1 [Linifanib]
Settings	relative cell number
sgRNA knockout: sgATF3, 10 nM	84.6
sgRNA knockout: sgATF3, 100 nM	111
sgRNA knockout: sgATF3, 1000 nM	111
sgRNA knockout: sgATF3, 10000 nM	54.9
sgRNA knockout: sgATF4, 10 nM	105
sgRNA knockout: sgATF4, 100 nM	114
sgRNA knockout: sgATF4, 1000 nM	121
sgRNA knockout: sgATF4, 10000 nM	59.4
sgRNA knockout: sgATF6, 10 nM	87.4
sgRNA knockout: sgATF6, 100 nM	107
sgRNA knockout: sgATF6, 1000 nM	96.5
sgRNA knockout: sgATF6, 10000 nM	47
sgRNA knockout: sgATG7, 10 nM	91.4
sgRNA knockout: sgATG7, 100 nM	112
sgRNA knockout: sgATG7, 1000 nM	108
sgRNA knockout: sgATG7, 10000 nM	50.8
sgRNA knockout: sgERN1, 10 nM	95.9
sgRNA knockout: sgERN1, 100 nM	101
sgRNA knockout: sgERN1, 1000 nM	109
sgRNA knockout: sgERN1, 10000 nM	53.2
sgRNA knockout: sgHSF1, 10 nM	96
sgRNA knockout: sgHSF1, 100 nM	106
sgRNA knockout: sgHSF1, 1000 nM	117
sgRNA knockout: sgHSF1, 10000 nM	50.6
sgRNA knockout: sgHSF2, 10 nM	79.6
sgRNA knockout: sgHSF2, 100 nM	111
sgRNA knockout: sgHSF2, 1000 nM	107
sgRNA knockout: sgHSF2, 10000 nM	54.9
sgRNA knockout: sgKEAP1, 10 nM	92.5
sgRNA knockout: sgKEAP1, 100 nM	101
sgRNA knockout: sgKEAP1, 1000 nM	108
sgRNA knockout: sgKEAP1, 10000 nM	43.1
sgRNA knockout: sgNFE2L2, 10 nM	92.9
sgRNA knockout: sgNFE2L2, 100 nM	103
sgRNA knockout: sgNFE2L2, 1000 nM	100.7
sgRNA knockout: sgNFE2L2, 10000 nM	52.1
sgRNA knockout: sgSLC35F2, 10 nM	92.6
sgRNA knockout: sgSLC35F2, 100 nM	110
sgRNA knockout: sgSLC35F2, 1000 nM	104
sgRNA knockout: sgSLC35F2, 10000 nM	41.5
sgRNA knockout: sgXBP1, 10 nM	89.7
sgRNA knockout: sgXBP1, 100 nM	88
sgRNA knockout: sgXBP1, 1000 nM	111
sgRNA knockout: sgXBP1, 10000 nM	51.9

C=C1C(=O)O[C@H]2[C@H]1CC/C(C)=C/CC[C@@]1(C)O[C@@H]21 [Parthenolide]
Settings	relative cell number
sgRNA knockout: sgATF3, 10 nM	102
sgRNA knockout: sgATF3, 100 nM	103
sgRNA knockout: sgATF3, 1000 nM	110
sgRNA knockout: sgATF3, 10000 nM	112
sgRNA knockout: sgATF4, 10 nM	107
sgRNA knockout: sgATF4, 100 nM	110
sgRNA knockout: sgATF4, 1000 nM	93.6
sgRNA knockout: sgATF4, 10000 nM	110.4
sgRNA knockout: sgATF6, 10 nM	84.9
sgRNA knockout: sgATF6, 100 nM	116
sgRNA knockout: sgATF6, 1000 nM	106
sgRNA knockout: sgATF6, 10000 nM	102
sgRNA knockout: sgATG7, 10 nM	107
sgRNA knockout: sgATG7, 100 nM	108
sgRNA knockout: sgATG7, 1000 nM	111
sgRNA knockout: sgATG7, 10000 nM	103
sgRNA knockout: sgERN1, 10 nM	98.9
sgRNA knockout: sgERN1, 100 nM	113
sgRNA knockout: sgERN1, 1000 nM	104
sgRNA knockout: sgERN1, 10000 nM	122
sgRNA knockout: sgHSF1, 10 nM	116
sgRNA knockout: sgHSF1, 100 nM	96.6
sgRNA knockout: sgHSF1, 1000 nM	107.4
sgRNA knockout: sgHSF1, 10000 nM	122
sgRNA knockout: sgHSF2, 10 nM	105
sgRNA knockout: sgHSF2, 100 nM	114
sgRNA knockout: sgHSF2, 1000 nM	86
sgRNA knockout: sgHSF2, 10000 nM	102
sgRNA knockout: sgKEAP1, 10 nM	116
sgRNA knockout: sgKEAP1, 100 nM	110
sgRNA knockout: sgKEAP1, 1000 nM	116
sgRNA knockout: sgKEAP1, 10000 nM	104
sgRNA knockout: sgNFE2L2, 10 nM	102
sgRNA knockout: sgNFE2L2, 100 nM	114
sgRNA knockout: sgNFE2L2, 1000 nM	108
sgRNA knockout: sgNFE2L2, 10000 nM	105
sgRNA knockout: sgSLC35F2, 10 nM	105
sgRNA knockout: sgSLC35F2, 100 nM	115
sgRNA knockout: sgSLC35F2, 1000 nM	105.3
sgRNA knockout: sgSLC35F2, 10000 nM	120
sgRNA knockout: sgXBP1, 10 nM	106.45
sgRNA knockout: sgXBP1, 100 nM	113
sgRNA knockout: sgXBP1, 1000 nM	112
sgRNA knockout: sgXBP1, 10000 nM	115

C[C@@]1(C(=O)Nc2ccc(F)nc2)CCCN1c1nc(Nc2cc(C3CC3)n[nH]2)c2cccn2n1
Settings	relative cell number
sgRNA knockout: sgATF3, 10 nM	87.8
sgRNA knockout: sgATF3, 100 nM	90.5
sgRNA knockout: sgATF3, 1000 nM	75.6
sgRNA knockout: sgATF3, 10000 nM	58.5
sgRNA knockout: sgATF4, 10 nM	98.5
sgRNA knockout: sgATF4, 100 nM	93.8
sgRNA knockout: sgATF4, 1000 nM	89
sgRNA knockout: sgATF4, 10000 nM	53.9
sgRNA knockout: sgATF6, 10 nM	86.33
sgRNA knockout: sgATF6, 100 nM	67.3
sgRNA knockout: sgATF6, 1000 nM	76.3
sgRNA knockout: sgATF6, 10000 nM	55.1
sgRNA knockout: sgATG7, 10 nM	102
sgRNA knockout: sgATG7, 100 nM	97
sgRNA knockout: sgATG7, 1000 nM	85.7
sgRNA knockout: sgATG7, 10000 nM	54.7
sgRNA knockout: sgERN1, 10 nM	75.6
sgRNA knockout: sgERN1, 100 nM	82.4
sgRNA knockout: sgERN1, 1000 nM	87.1
sgRNA knockout: sgERN1, 10000 nM	63.5
sgRNA knockout: sgHSF1, 10 nM	95.8
sgRNA knockout: sgHSF1, 100 nM	83.6
sgRNA knockout: sgHSF1, 1000 nM	75.5
sgRNA knockout: sgHSF1, 10000 nM	57.4
sgRNA knockout: sgHSF2, 10 nM	79.2
sgRNA knockout: sgHSF2, 100 nM	87.9
sgRNA knockout: sgHSF2, 1000 nM	79.6
sgRNA knockout: sgHSF2, 10000 nM	67.9
sgRNA knockout: sgKEAP1, 10 nM	86.4
sgRNA knockout: sgKEAP1, 100 nM	83.2
sgRNA knockout: sgKEAP1, 1000 nM	68.1
sgRNA knockout: sgKEAP1, 10000 nM	56.27
sgRNA knockout: sgNFE2L2, 10 nM	91.2
sgRNA knockout: sgNFE2L2, 100 nM	75.6
sgRNA knockout: sgNFE2L2, 1000 nM	70.8
sgRNA knockout: sgNFE2L2, 10000 nM	51.1
sgRNA knockout: sgSLC35F2, 10 nM	103
sgRNA knockout: sgSLC35F2, 100 nM	89.8
sgRNA knockout: sgSLC35F2, 1000 nM	91.8
sgRNA knockout: sgSLC35F2, 10000 nM	60.5
sgRNA knockout: sgXBP1, 10 nM	87.6
sgRNA knockout: sgXBP1, 100 nM	85.6
sgRNA knockout: sgXBP1, 1000 nM	75.8
sgRNA knockout: sgXBP1, 10000 nM	67.2
